Data taken from publication PMC5777986.
No constants are given. Whether binding was seen depends on the method and setting. Binding seen in cells or lysates may run through a third protein. Some binding calls cover weakened binding; strength is not graded here.

Target: T1, TatA (E. coli) (UniProt P69428)
T1 sequence: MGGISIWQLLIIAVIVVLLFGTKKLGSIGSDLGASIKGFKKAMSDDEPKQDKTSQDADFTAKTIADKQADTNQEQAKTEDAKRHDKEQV
Test: cross-linking; inverted inner membrane vesicles (TatABC, TatEBC, TatEABC) diluted in INV-buffer, DCCD (1 µl of 50 mM in 100 µl) added, 20 min on ice, TCA precipitation, 9% Tricine SDS-PAGE, Western blot with antibodies against TatA, TatB, TatC, TatE

B1: TatE (protein, UniProt P0A843 1-67)
chain: MGEISITKLLVVAALVVLLFGTKKLRTLGGDLGAAIKGFKKAMNDDDAAAKKGADVDLQAEKLSHKE
With B1 the binding was “binds”.
